The list shows a part of the results.
target: T1, OsSMF1 (Oryza sativa, UniProt Q6ZLB0 1-436); test: protein-binding microarray (RPBM); PBS, 2% BSA, 51.3 ng/ul salmon testes DNA, 50 uM zinc acetate, 200 nM TF, 25 C, 1 h; high values mean tight binding; conditions: protein: recombinant; tags: N-terminal polyhistidine and DsRed monomer fusion (pET32a); chain copies: 2; label: CyDye5-dUTP incorporated in the synthesized complementary strand; 3' TTTTT single-stranded linker to array surface; dsDNA, one strand shown
T1 sequence: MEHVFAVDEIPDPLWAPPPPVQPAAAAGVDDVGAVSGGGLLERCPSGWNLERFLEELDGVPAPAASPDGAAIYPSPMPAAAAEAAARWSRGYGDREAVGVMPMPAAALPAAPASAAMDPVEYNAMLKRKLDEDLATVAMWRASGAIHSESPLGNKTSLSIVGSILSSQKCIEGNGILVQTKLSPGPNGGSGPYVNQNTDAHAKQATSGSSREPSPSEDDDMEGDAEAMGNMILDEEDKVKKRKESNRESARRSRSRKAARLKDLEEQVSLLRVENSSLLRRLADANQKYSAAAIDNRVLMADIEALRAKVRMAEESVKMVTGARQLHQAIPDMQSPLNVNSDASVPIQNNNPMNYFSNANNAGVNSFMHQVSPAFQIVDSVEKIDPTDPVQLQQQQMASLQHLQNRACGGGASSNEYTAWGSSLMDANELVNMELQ
Method in brief: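 For the binding signal, per-feature fluorescence intensity was read in arbitrary units on an Axon 4000B scanner. Before scanning, a 2% BSA-blocked custom Agilent array made double-stranded with Cy5-dUTP was washed after 1 h at 25 °C with 200 nM protein and 50 µM zinc acetate. The proteins were Ni–NTA-purified transcription factors with N-terminal polyhistidine and DsRed fusions, expressed in E. coli BL21-CodonPlus.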

Sequence	binding signal
GCGATGCCTATGCAAGTTGCCCACGTCCTCCATGGAAACTCGGAGTCACCTAGTGCAG	3280 fluorescence intensity (a.u.)
TCCCGCGGATCGCCTCCTCGGCGCGCGCCGTGGCGGCCAACGGAGTCACCTAGTGCAG	3540 fluorescence intensity (a.u.)
CGCCTCTGTCATAGCGGAGAGCACGGTCACCACCACGGTGCGGAGTCACCTAGTGCAG	5990 fluorescence intensity (a.u.)
TTAATGTATGACGCTGTTCACTTTTCATCTAACGCTTAACCGGAGTCACCTAGTGCAG	4120 fluorescence intensity (a.u.)
AAGAGATGCAATTTACACTTTTGATGAATCATCCAAAGTCCGGAGTCACCTAGTGCAG	5470 fluorescence intensity (a.u.)
TCCCACACGCCATGACGCCAACCAACCCAAGCACAGCAGTCGGAGTCACCTAGTGCAG	3850 fluorescence intensity (a.u.)
GCCAATCGAAACGTTGGCTCGCTCGGTCATCATCTTGCATCGGAGTCACCTAGTGCAG	4000 fluorescence intensity (a.u.)
CTCCACCACTAATTCCTTCTTGCCACATGTGGTCGCTGATCGGAGTCACCTAGTGCAG	3880 fluorescence intensity (a.u.)
ATAAACCAATGTAAAGAAAAGAGATGAAACTACTTTGACGCGGAGTCACCTAGTGCAG	5230 fluorescence intensity (a.u.)
ACGGGATGCTATTTTGTAGCTGCCCTCTTAAACAAGACGACGGAGTCACCTAGTGCAG	3970 fluorescence intensity (a.u.)
ATGCCATGAAAGGCTAGCTGAAAGCAACACGATGCACTTGCGGAGTCACCTAGTGCAG	16700 fluorescence intensity (a.u.)
CCACTTGTATCCCCTTAGTTCATCCTCCTTCCACCTCTATCGGAGTCACCTAGTGCAG	3250 fluorescence intensity (a.u.)
GTTCTCCCAGGTGGAGTCGACGCGAGCCCACGCGCTGTAGCGGAGTCACCTAGTGCAG	3650 fluorescence intensity (a.u.)
CAGTCCCGAATCGTATGTTGGACACGCCAACACACACCATCGGAGTCACCTAGTGCAG	4120 fluorescence intensity (a.u.)
AAAGAGCATATACAATCATCAGTGTTTTCTCATCTGAAACCGGAGTCACCTAGTGCAG	13500 fluorescence intensity (a.u.)
TGGTGGCCCGGCGGGCGGGCGGGGCGGGGCGGACGAACGGCGGAGTCACCTAGTGCAG	5500 fluorescence intensity (a.u.)
CACACTCATTGCGTGTGTGTCGAAGACGGCCGGGCGCTGCCGGAGTCACCTAGTGCAG	33900 fluorescence intensity (a.u.)
TTTCTGAATTTCCGGCGACACGCACGGTTGCCATCACCGTCGGAGTCACCTAGTGCAG	3370 fluorescence intensity (a.u.)
AATTTATATTTCCTTTATATCATCATTATACTATATATTACGGAGTCACCTAGTGCAG	4290 fluorescence intensity (a.u.)
AACGACCGACCGCGCTTGATGCGTCACCATGATTACCTGGCGGAGTCACCTAGTGCAG	7680 fluorescence intensity (a.u.)
TTGTTTGCTGCTAATGAGTCAAGTTGGAGATAGCTTGGTCCGGAGTCACCTAGTGCAG	3270 fluorescence intensity (a.u.)

2 records picked at random from those above:
Sequence	binding signal
TGGTGGCCCGGCGGGCGGGCGGGGCGGGGCGGACGAACGGCGGAGTCACCTAGTGCAG	5500 fluorescence intensity (a.u.)
GCGATGCCTATGCAAGTTGCCCACGTCCTCCATGGAAACTCGGAGTCACCTAGTGCAG	3280 fluorescence intensity (a.u.)

Additional entries follow.

Sequence	binding signal
CATCCGTATTTGAGTCAGTTTTAAAGTTTGTTCGCTTTTGCGGAGTCACCTAGTGCAG	3260 fluorescence intensity (a.u.)
AAATGCGAGAAGAGAATGCGCGTTGACTGGACAGGCTCCTCGGAGTCACCTAGTGCAG	3260 fluorescence intensity (a.u.)
GCGCCGTCTCCCTCACCGTTACCGGCGTCATCGTAGTTGACGGAGTCACCTAGTGCAG	5290 fluorescence intensity (a.u.)
AAAGCCCAGTACGACAGTGAGGCCGAACAGAACGCCCTGGCGGAGTCACCTAGTGCAG	23900 fluorescence intensity (a.u.)
ACCAAATTAAGTGTTGTTTTGCCAAAATCTTGACAATTATCGGAGTCACCTAGTGCAG	19700 fluorescence intensity (a.u.)
TGCCAAATCATCACTCCGGTCTACGTGGCCAGCATATCGCCGGAGTCACCTAGTGCAG	12500 fluorescence intensity (a.u.)
CTCTACTGTAATTCTTCTAAAGCATCATGTTGTACTAACTCGGAGTCACCTAGTGCAG	3460 fluorescence intensity (a.u.)
CTTGTGGTGATCTATGTTACACTGTGTCATGCTCTTCTTCCGGAGTCACCTAGTGCAG	3160 fluorescence intensity (a.u.)
ACACTTGAACTGACTCAGGAACCTTGTTCTATGGCTTGCCCGGAGTCACCTAGTGCAG	3630 fluorescence intensity (a.u.)
TCTCGGTTGCTTCCTCGCCGTTGTGTGAATGCGCACGTGGCGGAGTCACCTAGTGCAG	9260 fluorescence intensity (a.u.)
GAGACGCGACGCGAGTGGATGACGTGGCTATGGGTGGGCGCGGAGTCACCTAGTGCAG	15400 fluorescence intensity (a.u.)
AATATATATCTTGTGTGTCTTTGCAAGTGTCTGCAATTGTCGGAGTCACCTAGTGCAG	3200 fluorescence intensity (a.u.)
AAGAATTTGAACTCTACCTAGTGCGTGTACTATTATGTCACGGAGTCACCTAGTGCAG	4180 fluorescence intensity (a.u.)
ATATGGTGCACATGATTACTAGTTTTATTAATACGTGGTACGGAGTCACCTAGTGCAG	3850 fluorescence intensity (a.u.)
GGTCACAATCACGGAGAGGAAGCGGATAGAAGATGTTGCTCGGAGTCACCTAGTGCAG	3200 fluorescence intensity (a.u.)
ATACCATTATAAATACTATCTTGTGAGTCAATTACATTGGCGGAGTCACCTAGTGCAG	3150 fluorescence intensity (a.u.)
TTGGGTTGATATGTTGCTGAATGGTCATTTTCTGGGTTAACGGAGTCACCTAGTGCAG	3910 fluorescence intensity (a.u.)
CGCCGCCATCTCGCCGCCGCCGCCACCTCACCCAACCAATCGGAGTCACCTAGTGCAG	7710 fluorescence intensity (a.u.)
TTGTTAAGCAGAGTCTTATATGCTTCATTCTTTATAATAACGGAGTCACCTAGTGCAG	3350 fluorescence intensity (a.u.)
TTCGCTCGCCACCTCCTCCATTTCGGCCACGCGGACCACCCGGAGTCACCTAGTGCAG	6300 fluorescence intensity (a.u.)
GCCTATTTCTGTAAATATTTTCGCCGGTATAATATTTATGCGGAGTCACCTAGTGCAG	3260 fluorescence intensity (a.u.)

Some of the entries so far, as a markdown table:

| Sequence | binding signal |
| --- | --- |
| ATACCATTATAAATACTATCTTGTGAGTCAATTACATTGGCGGAGTCACCTAGTGCAG | 3150 fluorescence intensity (a.u.) |
| TTGGGTTGATATGTTGCTGAATGGTCATTTTCTGGGTTAACGGAGTCACCTAGTGCAG | 3910 fluorescence intensity (a.u.) |
| CGCCGCCATCTCGCCGCCGCCGCCACCTCACCCAACCAATCGGAGTCACCTAGTGCAG | 7710 fluorescence intensity (a.u.) |
| TTGTTAAGCAGAGTCTTATATGCTTCATTCTTTATAATAACGGAGTCACCTAGTGCAG | 3350 fluorescence intensity (a.u.) |
| TTCGCTCGCCACCTCCTCCATTTCGGCCACGCGGACCACCCGGAGTCACCTAGTGCAG | 6300 fluorescence intensity (a.u.) |

Continued.

Sequence	binding signal
TCAGCCACCAAACTCGCAGAATTGTGGCTGTTTTCTTCCTCGGAGTCACCTAGTGCAG	3460 fluorescence intensity (a.u.)
GTTTATCCGGCGCCTCATCTCCGGTGTGGTCAGACAGCCACGGAGTCACCTAGTGCAG	3210 fluorescence intensity (a.u.)
CAGGCGCTCGCGGTCGGGGTCGGGGAGGAGGGAGAATCTCCGGAGTCACCTAGTGCAG	4240 fluorescence intensity (a.u.)
GTCCAAACCCCATTTGACTCGGTCTGCTCGCTGACGTGGCCGGAGTCACCTAGTGCAG	28800 fluorescence intensity (a.u.)
CAGAACCGCGCACAACGGAGGGCATTTACGTCATTCCACCCGGAGTCACCTAGTGCAG	3310 fluorescence intensity (a.u.)
CTAGTTCGCCTTCCACGTACGCACTTGGCGTCGTATCTGCCGGAGTCACCTAGTGCAG	6440 fluorescence intensity (a.u.)
CTCTCGACTGTGACTCTCCCCGTGTTTGGGCCACACGAAACGGAGTCACCTAGTGCAG	3200 fluorescence intensity (a.u.)
ACTCCCTCGACGGTTTTGGAGGGCGATTTTGCTGACGTGGCGGAGTCACCTAGTGCAG	47600 fluorescence intensity (a.u.)
GCAAAACCTTACTTTTGTCTACGCTTTTGTGCTTTGTCAGCGGAGTCACCTAGTGCAG	3930 fluorescence intensity (a.u.)
TTTGAGGCAGAGCATTTAATAAGCTTGCCGTGGACCCGTGCGGAGTCACCTAGTGCAG	3230 fluorescence intensity (a.u.)
TGCTATGCATATATGGCCGTTGCACGTGGGAATAGACAGTCGGAGTCACCTAGTGCAG	4120 fluorescence intensity (a.u.)
GCGGCGACGTCCACGCCATCGTGTTCTTCCCCGGCGGGTCCGGAGTCACCTAGTGCAG	4680 fluorescence intensity (a.u.)
CCTCCGTTTCACAATGTAAGTCATTCTAGCATTTCCCACACGGAGTCACCTAGTGCAG	32900 fluorescence intensity (a.u.)
AACTCCCGCGATGACCGCGCGCTGACCACGCCTCGCTCTCCGGAGTCACCTAGTGCAG	3910 fluorescence intensity (a.u.)
GCATCAAAGTAGGGACGATATATATATATATACTCCGACGCGGAGTCACCTAGTGCAG	3360 fluorescence intensity (a.u.)
TCTCACCTCTTCCCATCTACTCCTACATGCAGACAAGCTGCGGAGTCACCTAGTGCAG	3850 fluorescence intensity (a.u.)
GAAATGTTGGTGACGGTGGAGGATTTTGTTGTTTTAGTGTCGGAGTCACCTAGTGCAG	3950 fluorescence intensity (a.u.)
GCCCACACGACAGTAACCCAGGGGACCCACGTGCACCGGGCGGAGTCACCTAGTGCAG	6150 fluorescence intensity (a.u.)
GTGGAGGAGGAAGAAGCTGACACGACGGAGCAGAGCTCGGCGGAGTCACCTAGTGCAG	4620 fluorescence intensity (a.u.)
TGTACTCGTCACGTCATATGCTTCGCACCTGTGCAAGCTGCGGAGTCACCTAGTGCAG	4720 fluorescence intensity (a.u.)
AAATACCATCATGTCAGCTGCAGGTCCTCATCGAGGCCGGCGGAGTCACCTAGTGCAG	4060 fluorescence intensity (a.u.)

Sequence	binding signal
TATGTTCTGTCAAGTCATTGACACATGATATTGTAATGTTCGGAGTCACCTAGTGCAG	3220 fluorescence intensity (a.u.)
CACTGTACACCTGGATCTCTCGATCGATCCCATATACCAGCGGAGTCACCTAGTGCAG	3940 fluorescence intensity (a.u.)
AAAAGGGTATAATAGTAGCATTCAAATCATTGATGCACACCGGAGTCACCTAGTGCAG	3190 fluorescence intensity (a.u.)
CATACACCTTATGATTAGATAAGTATGTGTCACCAGGAATCGGAGTCACCTAGTGCAG	5240 fluorescence intensity (a.u.)
CTAACATGTGAGCCTGAGGGTGGTATGACTCACATGAAAGCGGAGTCACCTAGTGCAG	6940 fluorescence intensity (a.u.)
CTCTGGGCCACGGCCCATGCCCGACGGCCGACGTGTCTCGCGGAGTCACCTAGTGCAG	6570 fluorescence intensity (a.u.)
CAGGTGAGGCCGGCAATGACGTGGTCAGCACTGACGAGTCCGGAGTCACCTAGTGCAG	8010 fluorescence intensity (a.u.)
ACGAGTCGCTGCATTCGATGTGATTACTTCTAAACTATTTCGGAGTCACCTAGTGCAG	3400 fluorescence intensity (a.u.)
GCAGGCAGGAGAGCGAATGGCAGGTCCGGTAATTACGCGGCGGAGTCACCTAGTGCAG	37200 fluorescence intensity (a.u.)
CAACAATCCGTAATCCCGTTGCCACGCCAGATATATCTCGCGGAGTCACCTAGTGCAG	4030 fluorescence intensity (a.u.)
AAATTGACAAGCTCATGGACTCCCCGTAGATCCGCGATTTCGGAGTCACCTAGTGCAG	4250 fluorescence intensity (a.u.)
GCAAGCGAGTTGCGTGACTCGCGTCACTCCTCACCACCACCGGAGTCACCTAGTGCAG	15200 fluorescence intensity (a.u.)
ACAACCTCCAACCGCGCCACATCACTCTATCACAACCTAGCGGAGTCACCTAGTGCAG	7230 fluorescence intensity (a.u.)
TGTGGTTTTCTAGTTAATTAACAAGCTAGCTATACCTAGCCGGAGTCACCTAGTGCAG	7160 fluorescence intensity (a.u.)
AAAGTCAACATCAAAGCAAATCAACTCTTGAAGGAACGACCGGAGTCACCTAGTGCAG	19200 fluorescence intensity (a.u.)
AACCACACGATCGATGCACGTCAAGTATACGCATACTCCGCGGAGTCACCTAGTGCAG	4140 fluorescence intensity (a.u.)
CCCATCTCGCTAGCCGCCGCCGGCCACAACCATTCCTCACCGGAGTCACCTAGTGCAG	3640 fluorescence intensity (a.u.)
TCAGTCCTCCACATGACCCCACCTGTCATCCACATCACCGCGGAGTCACCTAGTGCAG	8400 fluorescence intensity (a.u.)
ATAAAGGGAGAAGTATCATTGACAACGCATAGAGGCTACACGGAGTCACCTAGTGCAG	3140 fluorescence intensity (a.u.)
TCATGCGGAAAACTGGTGTGGAAGGGGCGCGTTTGTGTTGCGGAGTCACCTAGTGCAG	3940 fluorescence intensity (a.u.)
CAAAACCGCACTAGTCACTAGTAGCTCACCTCCAACATTTCGGAGTCACCTAGTGCAG	3620 fluorescence intensity (a.u.)
